Test results published in patent publication US9896720B2, “Imaging individual mRNA molecules using multiple singly labeled probes” (Rutgers, The State University of New Jersey, priority 2008, dated 2018).
At least one structure is not confirmed: it was looked up by name or label, or the drawing left a doubt.

Legend:
FKBP5 mRNA in A549 cells = experiment: FISH spot counting of FKBP5 mRNA after dexamethasone; assay type: cell-based, human; settings: treated for 8 hours with 24 nM dexamethasone vs not treated, corresponded well to RT-PCR
[1] = system: FLJ11127 mRNA in A549 cells; experiment: FISH spot counting of FLJ11127 mRNA after dexamethasone; assay type: cell-based, human; settings: treated for 8 hours with 24 nM dexamethasone vs not treated, corresponded well to RT-PCR
[2] = system: doxycycline-controlled gene encoding green fluorescent protein mRNA in CHO cells; experiment: FISH of doxycycline-controlled GFP reporter mRNA in CHO cells; assay type: cell-based, Chinese hamster; settings: CHO cells having the reporter gene, turned off by addition of doxycycline

| SMILES | mean number of FKBP5 mRNAs measured by FISH with spot detection algorithm (FKBP5 mRNA in A549 cells) | mean number of F111127 mRNAs measured by FISH with spot detection algorithm [1] | reporter mRNA particles detected by FISH [2] |
| --- | --- | --- | --- |
| C[C@@H]1C[C@H]2[C@@H]3CCC4=CC(=O)C=C[C@]4(C)[C@@]3(F)[C@@H](O)C[C@]2(C)[C@@]1(O)C(=O)CO [dexamethasone] | increased | increased |  |
| C[C@H]1c2cccc(O)c2C(=O)C2=C(O)[C@]3(O)C(=O)C(C(N)=O)=C(O)[C@@H](N(C)C)[C@@H]3[C@@H](O)[C@@H]21 [doxycycline] |  |  | mRNA particles in only a few cells |
